The text below walks through data of PubChem BioAssay AID2685 (National Center for Advancing Translational Sciences (NCATS), 2010).

The nature of this assay: qHTS Assay for Lipid Storage Modulators in Drosophila S3 Cells.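 On cell number change: cells counted by Cell Tracker Red CMTPX staining in the red channel.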 The following applies: BODIPY lipid droplet fluorescence, 18-24 h; for cell number change: measured here: cell count max response, cells fed with added oleic acid. A digest of the protocol: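 Laser-scanning cytometry quantifies lipid droplet accumulation (500–530 nm total intensity; droplet/cell object ratio) in oleic acid-fed (400 uM added) Drosophila S3 cells treated with a concentration series. 20 uM Triacsin C defined 100% inhibition.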
In general terms: Quantitative high-throughput screening tests each substance at several concentrations.

[1] abbreviates: measured here: cell number channel AC50, cells fed with added oleic acid.
The mark [2] stands for this setting: measured here: lipid fluorescence (Fed channel) AC50, cells fed with added oleic acid.

The other results are listed elsewhere or left out. Shown are side measurements of this screen, not its main read-out; they come without a call. Compounds called inactive in the main read-out are mostly missing here. Words in brackets tell the shape of the fitted curve; partial curves, single points and poor fits give uncertain potencies.

What is called AC50 is the concentration giving half of the maximal activity seen. A lower AC50 goes with activity at low concentration.

Consider `Cc1ccc(C)c2[nH]c(=O)c(CCNC(=O)CC(C)C)cc12`, for which the AC50 under setting [1] was 0.206 µM [rising, partial curve] and the AC50 under setting [2] was 0.082 µM [rising, full curve, poor fit].
Consider `N#CCCN(C(=O)CO/N=C/c1cccc([N+](=O)[O-])c1)c1ccccc1`, for which the cell number change is 50.7%. Moreover, under setting [1], the AC50 is 16.4 µM [rising, single point].
In the case of `CC(C)(C)CN1CCNC(=O)C1CC(=O)N1CCC(C(=O)N2CCOCC2)CC1` (configuration not stated), the cell number change is -6.27%. The AC50 under setting [2] is 0.366 µM [rising, single point].
As to `COc1ccc(N(Cc2ccco2)C(=O)c2ccccc2F)cc1OC`, the cell number change is -1.04%. Under setting [2], the AC50 is 29.1 µM [rising, single point].
`O=C(NCC1(c2ccccc2)CCOCC1)c1cccs1`: under setting [1], the half-maximal activity concentration (AC50) is 0.00461 µM [rising, full curve, poor fit].
For `COc1ccc(-c2[nH]ncc2C=O)cc1OC`, the cell number change is -7.8%. Further, the AC50 under setting [1] is 0.0731 µM [rising, full curve, poor fit].
In the case of `COc1ccc2[nH]c(=O)c(CN(Cc3ccc(C)cc3)Cc3nnnn3CC3CCCO3)cc2c1` (configuration not stated), the cell number change came out at 3.31%.
Regarding `C=CCNC(=O)c1ccccc1S(=O)c1ccccc1C#N` (configuration not stated), the cell number change was 19.4%. Further, the half-maximal activity concentration (AC50) under setting [2] was 7.31 µM [rising, partial curve, poor fit].
`Cc1nc2ccccn2c1C(=O)NN=C1C2CC3CC(C2)CC1C3`: the cell number change came out at 13.6%.
With `COc1cc2[nH]c(=O)n(CCC(=O)NC3CCN(Cc4ccccc4)CC3)c(=O)c2cc1OC`, the cell number change was 1.46%.
On the same count and under the same terms, for `Cc1ccc(OCC(=O)Nc2ccccc2C(N)=O)cc1` the value was 7.3%.
As to `CC1CCCC(C)N1C(=O)CNCc1ccc2c(c1)OCO2` (configuration not stated), the cell number change was found to be 48.8%. In addition, the AC50 under setting [1] is 23.1 µM [rising, partial curve]. In addition, the half-maximal activity concentration (AC50) under setting [2] is 20.6 µM [rising, partial curve].
In the case of `COC(=O)C(CC(C)C)NC(=O)CNC(=O)c1ccccc1C` (configuration not stated), the cell number change was determined as 6.97%. In addition, under setting [2], the AC50 is 23.1 µM [falling, partial curve].
`COc1ccc(NC(=O)CCCNC(=O)Cn2cnc3sc4c(c3c2=O)CCCC4)c(OC)c1`: the cell number change came out at 10.7%.
For `CC(Sc1ccccc1)C(=O)Nc1ccccc1C(=O)N1CCOCC1` (configuration not stated), the cell number change is -16.2%. Moreover, the AC50 under setting [2] was 0.13 µM [falling, full curve].
For `O=S(=O)(c1cccc(-c2csc(-c3cccnc3)n2)c1)N1CCOCC1`, the AC50 under setting [1] is 0.103 µM [rising, full curve].
Consider `CCCCNC(=O)NC(C(=O)OC)C12CC3CC(CC(C3)C1)C2` (configuration not stated), for which the cell number change is -22.2%. Also, the AC50 under setting [2] is 1.64 µM [falling, full curve].
For `COc1ccc(C2N(S(=O)(=O)c3ccccc3)CCN2S(=O)(=O)c2ccc(C)cc2)cc1` (configuration not stated), the AC50 under setting [1] was 3.66 µM [rising, partial curve].
As for `COC(=O)c1c(NC(=O)c2cccs2)sc2c1CCC(C)C2` (configuration not stated), the cell number change stood at 20.1%. Moreover, under setting [2], the AC50 was 0.731 µM [rising, full curve, poor fit].
Regarding `Cc1cccc(C)c1-n1nnnc1SCC(=O)N1CCNC1=O`, the cell number change was 69%. In addition, the AC50 under setting [1] is 16.4 µM [rising, partial curve, poor fit].
Turning to `CNC(=O)c1c[nH]c2ccc(S(=O)(=O)Nc3cccc(Cl)c3C)cc2c1=O`, the cell number change was -17.2%. Besides, the AC50 under setting [2] was 29.1 µM [falling, single point].
With `CC(C)NC(=S)n1cc(C(=O)c2cc(Cl)cc(Cl)c2O)cn1`, the cell number change was -11.8%. Also, under setting [2], the AC50 was 2.51 µM [falling, partial curve].
As to `O=C(NCc1ccncc1)c1cnccn1`, the cell number change turned out to be 4.45%. Also, the AC50 under setting [2] is 6.51 µM [rising, single point].
Turning to `Cc1cccc(C[C@H](C(=O)O)N2C(=O)c3ccc(C(=O)O)cc3C2=O)c1`, the cell number change is -1.35%. Under setting [2], the AC50 was 9.2 µM [falling, partial curve].
As for `Cn1c(=O)c2c(ncn2CC(=O)Nc2ccc(Cl)cc2Cl)n(C)c1=O`, the cell number change was -7.58%. The AC50 under setting [2] was 1.84 µM [rising, full curve, poor fit].
In the case of `COCCSc1ccccc1C(=O)Nc1cccnc1`, the cell number change amounted to 22.1%.
For the molecule `CC(C)(C)C(=O)Nc1ncc(C(F)(F)F)cc1Cl`, the cell number change was -22.1%.
In the case of `CCOc1cccc(=O)c2c(C)n(Cc3ccco3)c(C)c12`, the cell number change was -32.6%. Moreover, under setting [1], the AC50 was 25.9 µM [falling, partial curve].
As for `CN(C)C1(CNC(=O)c2cccc(S(=O)(=O)NCc3ccccc3)c2)CCCCC1`, the cell number change was -11.1%. In addition, under setting [2], the AC50 was 0.082 µM [rising, full curve, poor fit].
With `NNc1ccc(Cl)c(C(=O)O)c1`, the cell number change was -18.5%. Besides, the AC50 under setting [2] is 18.4 µM [falling, partial curve].
Regarding `CCOC(=O)CSc1nnc(-c2ccco2)n1-c1ccccc1`, the cell number change is -11.3%. Besides, under setting [1], the AC50 is 0.058 µM [falling, full curve, poor fit].
In the case of `Cc1ccc(NC(=O)CSCC(=O)Nc2ccccc2N2CCCCC2)cc1`, the cell number change was 73.5%. Besides, the half-maximal activity concentration (AC50) under setting [1] is 2.59 µM [rising, full curve].
With `CCOC(=O)c1sc2nc(C)nc(SC(C)C(=O)NC3CC3)c2c1C` (configuration not stated), the cell number change is -13%. Also, the AC50 under setting [2] was 0.092 µM [falling, full curve, poor fit].
In the case of `Cc1cccc(N(CC(=O)NCc2ccc3c(c2)OCO3)C(=O)CCC(=O)Nc2ccccn2)c1`, the cell number change is -6.31%. Further, the AC50 under setting [2] is 5.17 µM [rising, partial curve].
Turning to `O=C(CN1CCN(c2ccccc2F)CC1)Nc1nnc(C(F)(F)F)s1`, the cell number change is -3.28%. Moreover, the AC50 under setting [2] is 1.16 µM [falling, single point].
As to `Cc1ccc(-c2nn3c(C)nnc3s2)cc1NC(=O)c1ccc(-c2ccc(Cl)cc2Cl)o1`, the cell number change is -62%. Further, the AC50 under setting [1] was 5.17 µM [falling, full curve, poor fit]. For the same molecule, under setting [2], the AC50 was 5.17 µM [falling, full curve].
For `CCOc1ccc(CN(C)CC(=O)Nc2cc(C)c(C)cc2[N+](=O)[O-])cc1`, the cell number change amounted to 24.7%. Besides, the AC50 under setting [2] is 29.1 µM [rising, single point].
For the molecule `COc1ccccc1NC(=O)C1CCN(C(=O)c2ccco2)CC1`, the cell number change came out at 2.56%. Also, the concentration at half-maximal activity (AC50) under setting [2] was 5.17 µM [rising, single point].
On to `COc1ccc(-c2cc3c(=O)n(CC(=O)Nc4ccc(Cl)cc4)ncn3n2)cc1`, for which the cell number change is -17.1%. In addition, the AC50 under setting [2] was 6.51 µM [rising, single point].
On to `CCCCC1=CC2=C(c3ccco3)C(=O)C(C)(OC(=O)c3ccc(OC)cc3)C(=O)C2=CN1CCCCO` (configuration not stated), for which the cell number change was -14.4%. The AC50 under setting [1] is 6.51 µM [falling, single point].
Turning to `Cc1ccc(-c2nnc(N3CCC(C)CC3)c3ccccc23)cc1C`, the cell number change was -37.3%. The AC50 under setting [1] was 29.1 µM [falling, single point]. Further, the AC50 under setting [2] is 29.1 µM [falling, single point].
With `COc1cc(C(=O)N/N=C(\Cc2ncc[nH]2)c2ccccc2)cc(OC)c1OC`, the cell number change is -33%. Besides, the AC50 under setting [1] is 5.8 µM [falling, partial curve].
As for `Cc1cc(C(=O)Oc2cccnc2)ccc1[N+](=O)[O-]`, the cell number change was found to be 23.1%. Also, under setting [2], the AC50 is 4.61 µM [falling, single point].
Regarding `COc1ccccc1OCCCOc1cccc(/C=C2\SC(=O)NC2=O)c1`, the cell number change came to 2.55%. In addition, the AC50 under setting [2] is 5.8 µM [rising, full curve].
On to `Cc1ccc2[nH]cc(C(=O)CN3CCN(c4ccccc4F)CC3)c2c1`, for which the cell number change is 39.4%. The AC50 under setting [1] was 0.92 µM [rising, partial curve]. Besides, the concentration at half-maximal activity (AC50) under setting [2] was 25.9 µM [rising, partial curve].
On to `O=C1CN(S(=O)(=O)c2cccc(Cl)c2Cl)c2ccccc2N1`, for which the cell number change was -31.4%. In addition, the AC50 under setting [1] is 0.058 µM [falling, partial curve, poor fit]. Further, the concentration at half-maximal activity (AC50) under setting [2] was 0.00461 µM [rising, full curve, poor fit].
As for `CC1CCN(c2nc3ccc(C(=O)N4CCN(Cc5ccc6c(c5)OCO6)CC4)cc3s2)CC1`, the cell number change is -39.7%. The half-maximal activity concentration (AC50) under setting [1] was 25.9 µM [falling, single point]. Also, the concentration at half-maximal activity (AC50) under setting [2] is 0.082 µM [rising, full curve].
For the molecule `CC(C)Cc1nnc(NC(=O)CCc2c[nH]c3ccccc23)s1`, the cell number change came out at 12.6%.
On to `CCCn1c(=S)[nH]c2cc(C(=O)N3CCc4ccccc43)ccc2c1=O`, for which the cell number change was -1.06%. Under setting [2], the concentration at half-maximal activity (AC50) was 0.291 µM [rising, partial curve, poor fit].
As for `Cc1nc(NS(=O)(=O)c2ccccc2)sc1C(=O)NNS(=O)(=O)c1ccccc1`, the cell number change is 14%. Besides, under setting [2], the AC50 was 29.1 µM [rising, single point].
Regarding `COc1cc(CCC(=O)OCC(=O)Nc2c(Cl)cccc2Cl)cc(OC)c1OC`, the cell number change was 2.52%.
As for `O=[N+]([O-])c1cc(Br)c(O)c(/C=N/Nc2nc3ccccc3s2)c1`, the cell number change came out at 27.8%.
As to `COc1ccccc1N(CC(=O)NC1CCCCC1)C(=O)CCC(=O)Nc1ccccn1`, the cell number change is 31.7%. Under setting [1], the AC50 is 2.91 µM [rising, partial curve]. Further, the half-maximal activity concentration (AC50) under setting [2] is 2.59 µM [rising, full curve].
As for `COc1ccc2nc(SCC(=O)Nc3cc(C)on3)[nH]c2c1`, the cell number change was 74.6%. Besides, under setting [1], the AC50 is 16.4 µM [rising, single point]. Moreover, the half-maximal activity concentration (AC50) under setting [2] was 18.4 µM [rising, partial curve].
In the case of `COc1ccc(N2C(=O)c3ccc(C(=O)Nc4ccccc4O)cc3C2=O)cc1`, the cell number change is -5.41%. Further, under setting [2], the AC50 was 29.1 µM [falling, single point].
As for `COc1ccc(-c2nn(-c3ccccc3)cc2C(=O)N2CCN(S(=O)(=O)c3cccc(F)c3)CC2)cc1`, the cell number change was 72.7%. Further, under setting [1], the AC50 was 4.61 µM [rising, full curve].
In the case of `COc1ccccc1NC(=O)CSc1nnc(C)o1`, the AC50 under setting [1] is 0.58 µM [falling, single point].
Turning to `CSc1nccc(Oc2ccc(C#N)cc2)n1`, the cell number change was -43.2%. Besides, the AC50 under setting [1] was 29.1 µM [falling, single point]. Under setting [2], the AC50 is 5.8 µM [falling, partial curve].
With `COc1ccc(-c2noc(-c3ccccc3-c3ccccc3)n2)cc1`, the cell number change is 0.621%.
For the molecule `COc1ccc(NCc2n[nH]nc2-c2ccccc2)cc1Cl`, the cell number change was -23.2%. Also, the half-maximal activity concentration (AC50) under setting [2] was 0.651 µM [falling, full curve, poor fit].
Turning to `O=C(Nc1ncn[nH]1)C(F)(F)C(F)F`, the cell number change is -22.1%. For the same molecule, the AC50 under setting [1] was 0.731 µM [falling, full curve, poor fit]. Under setting [2], the AC50 was 23.1 µM [falling, partial curve].
